# Assay results as given in PMC5844890 (Scientific Reports, 2018).
# Key:
# Format in all cases: cell-based
# MDA-MB-231 cells = test: Anti-proliferative activity, MDA-MB-231 breast carcinoma cells (Coulter counting); conditions: Homo sapiens, MDA-MB-231, 72 h, read-out: Tumor cells IC50 MDA-MB-231
# Text: (§1) The anti-proliferative activity of the synthesized benzofurane derivatives was studied in three human cancer cell lines [breast carcinoma (MDA-MB-231), lymphoblastic leukemia (CEM) and cervical carcinoma (HeLa) cells] and one endothelial cell line [human microvascular endothelial cells (HMEC-1)].
# (§2) The human microvascular endothelial cell line HMEC-1 was obtained at passage 12 from the Centers for Disease Control and Prevention (Atlanta, GA, USA) and used from passage 17 till 27. Human breast carcinoma (MDA-MB-231), human cervical carcinoma (HeLa) and human T-lymphoid (CEM) cells were obtained from ATCC (Middlesex, UK). Cell lines were maintained in culture for up to 3 months and grown in DMEM, supplemented with 10% FBS, 0.01 M Hepes and 1 mM sodium pyruvate. All cells were cultured in a humidified 5% CO2 incubator at 37 °C.
# (§3) HMEC-1 cells were seeded in 48-well plates at 20,000 cells/well. […] The cells were allowed to proliferate 4 days in the presence of the compounds, trypsinized, and counted by means of a Coulter counter (Analis, Belgium). […] After 3 days of incubation, the cells were trypsinized and counted in a Coulter counter. Suspension cells (human lymphoid Cem cells) were seeded in 96-well plates at 60,000 cells/well in the presence of different concentrations of the compounds, allowed to proliferate for 96 h, and counted in a Coulter counter. […]
# CEM cells = test: Anti-proliferative activity, CEM lymphoblastic leukemia cells (Coulter counting); conditions: Homo sapiens, CCRF-CEM, 96 h, read-out: Tumor cells IC50 CEM
# Text: as §1, §2, §3
# HeLa cells = test: Anti-proliferative activity, HeLa cervical carcinoma cells (Coulter counting); conditions: Homo sapiens, 72 h, read-out: Tumor cells IC50 HeLa
# Text: as §1, §2, §3
# HMEC-1 cells = test: Anti-proliferative activity, HMEC-1 microvascular endothelial cells (Coulter counting); conditions: Homo sapiens, HMEC-1, 96 h, read-out: Endothelial cells IC50 HMEC-1
# Text: as §1, §2, §3
# A2780 cells = test: Anti-proliferative activity, A2780 ovarian carcinoma cells; conditions: Homo sapiens, mean ± standard error of three independent experiments
# Procedure: One of the most relevant causes of tumor resistance to chemotherapy is the overexpression of membrane pumps which remove the chemotherapeutic agents from the treated cells. To evaluate the effect of the new chemotype on resistant cells, the most representative compounds were tested against A2780 and A2780AD (MDR overexpressing P-glycoprotein) human ovarian carcinomas and the results are collected in Table 2.
smiles,measurement,setting,value
"COc1cc2c(c(OC)c1OC)-c1ccc(OC)c(=O)cc1[C@@H](NC(C)=O)CC2 [Colchicine, reference compound]",IC50,MDA-MB-231 cells,7 ± 3 nM
same,IC50,CEM cells,13 ± 0.4 nM
same,IC50,HeLa cells,8.7 ± 0.1 nM
same,IC50,HMEC-1 cells,3.8 ± 1.1 nM
same,IC50,A2780 cells,15 ± 4 nM
